According to PubChem BioAssay AID256 (DTP/NCI, 2004):
The list does not hold the whole screen: it gathers tests that were run many times, whatever their T/C, doses with no T/C, and many T/C values between a quarter and a half above the control. Further doses and runs are listed elsewhere. T/C: endpoint of the treated group in % of that of the vehicle group. Some doses have a count of surviving animals in place of a T/C: the source files T/C as zero there, which appears to mark a toxic dose or a test without result, not a measured value. Some survivor counts are full or nearly so, which does not show that the dose was tolerated: the source hardly ever lists a survival T/C far under the control, and the zero likely stands for such cases as well. Counts of survivors are from the toxicity check (mostly the fifth day) where no day follows; animals may have died later. Schedule codes are those of the source, read here as Q, the interval in days (D) or hours (H), X, the number of doses. Some doses were run more than once; the results are listed from low to high. Where survival is the endpoint, this PubChem deposit counts one and a half times the control or more as active, and values a quarter to a half above the control carry no call in these data; other NCI protocols may use other cut-offs. Some T/C values are followed by the survivors on the day toxicity was checked, most often the fifth; without a count, all were alive then.

Tested on: CD2F1 mice, L1210 leukemia ip, survival T/C
Assay: NCI In Vivo Anticancer Drug Screen. Data for tumor model L1210 Leukemia (intraperitoneal) in CD2F1 (CDF1) mice
Conditions: higher T/C = longer survival
Procedure, shortened: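 Implant tumor; dose compound or vehicle; measure endpoint in both groups; report treated divided by control.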

[1] = T/C endpoint: mean survival time, dose: 200.0 mg/kg/injection, schedule: Q04DX003 (ip), vehicle: saline with Tween-80
[2] = T/C endpoint: mean survival time, dose: 400.0 mg/kg/injection, schedule: Q04DX003 (ip), vehicle: saline with Tween-80
[3] = T/C endpoint: mean survival time, dose: 400.0 mg/kg/injection, schedule: Q01DX001 (ip), vehicle: other
[4] = T/C endpoint: mean survival time, dose: 75.0 mg/kg/injection, schedule: Q01DX001 (ip), vehicle: saline
[5] = T/C endpoint: mean survival time, dose: 150.0 mg/kg/injection, schedule: Q01DX001 (ip), vehicle: saline
[6] = T/C endpoint: mean survival time, dose: 300.0 mg/kg/injection, schedule: Q01DX001 (ip), vehicle: saline
[7] = T/C endpoint: mean survival time, dose: 200.0 mg/kg/injection, schedule: Q04DX002 (ip), vehicle: saline with Tween-80
[8] = T/C endpoint: mean survival time, dose: 400.0 mg/kg/injection, schedule: Q04DX002 (ip), vehicle: saline with Tween-80
[9] = T/C endpoint: mean survival time, dose: 200.0 mg/kg/injection, schedule: Q01DX009 (ip), vehicle: saline with Tween-80
[10] = T/C endpoint: mean survival time, dose: 400.0 mg/kg/injection, schedule: Q01DX009 (ip), vehicle: saline with Tween-80
[11] = T/C endpoint: mean survival time, dose: 100.0 mg/kg/injection, schedule: Q01DX009 (ip), vehicle: saline with Tween-80
[12] = T/C endpoint: mean survival time, dose: 400.0 mg/kg/injection, schedule: Q04DX003 (ip), vehicle: saline
[13] = T/C endpoint: mean survival time, dose: 400.0 mg/kg/injection, schedule: Q01DX001 (ip), vehicle: saline with Tween-80

Compound: c1ccc(OCCCNc2ccccn2)cc1
- survivor count [1]: 0 of 3
- survivor count [2]: 0 of 3

Compound: Nc1nc2c(c(=O)[nH]1)N=C(CCc1ccccc1)CO2
- survivor count (T/C endpoint: mean survival time, dose: 400.0 mg/kg/injection, schedule: Q01DX009 (ip), vehicle: other): 3 of 6

Compound: N#CCc1ccccc1-c1ccccc1CC#N
- survivor count (T/C endpoint: mean survival time, dose: 80.0 mg/kg/injection, schedule: Q01DX001 (ip), vehicle: other): 3 of 6

Compound: O=C(c1ccccc1)N(N=C(c1ccc([N+](=O)[O-])cc1)c1ccc([N+](=O)[O-])cc1)c1ccccc1
- survivor count [1]: 6 of 6

Compound: NCCc1ccccn1
- survivor count [2]: 0 of 3

Compound: Nc1ccc(OCCCc2ccccc2)c([N+](=O)[O-])c1
- survivor count [3]: 0 of 3 and 1 of 6
- survivor count (T/C endpoint: mean survival time, dose: 400.0 mg/kg/injection, schedule: Q04DX003 (ip), vehicle: other): 2 of 6

Compound: CNCCc1ccc(O)c(O)c1
- survivor count [4]: 2 of 6
- survivor count [5]: 0 of 6

Compound: Nc1ccc(-c2nc(-c3ccccc3)c(-c3ccccc3)[nH]2)cc1
- survivor count (T/C endpoint: mean survival time, dose: 100.0 mg/kg/injection, schedule: Q01DX001 (ip), vehicle: saline with Tween-80): 3 of 3
- survivor count (T/C endpoint: mean survival time, dose: 200.0 mg/kg/injection, schedule: Q01DX001 (ip), vehicle: saline with Tween-80): 3 of 3

Compound: COc1cc(C(=O)N(C(C)C)C2CCCCC2)cc(OC)c1OC
- survivor count [2]: 2 of 6

Compound: O=S(=O)(F)c1cc(Cl)ccc1C[P+](c1ccccc1)(c1ccccc1)c1ccccc1
- survivor count [4]: 0 of 6
- survivor count [5]: 1 of 6
- survivor count [6]: 1 of 6

Compound: Cc1c([N+](=O)[O-])cc(C(C)(C)C)c(OS(C)(=O)=O)c1[N+](=O)[O-]
- survivor count [7]: 3 of 3
- survivor count [8]: 3 of 3

Compound: O=C(NCCCl)Nc1cc(Cl)cc(Cl)c1
- survivor count [9]: 6 of 6
- survivor count [10]: 2 of 6

Compound: O=Cc1cc(Cl)ccc1O
- survivor count [10]: 0 of 6
- survivor count [2]: 4 of 6

Compound: Cc1ccc(N2CCN(CCCCCC(=O)O)CC2)cc1Cl
- T/C [2]: 129 % of control
- survivor count [2]: 3 of 6

Compound: C1CC[N-]CC1.CC(=N\O)/C(C)=N/O.CC(=N\O)/C(C)=N/O.[CH2-]CCN1CCOCC1.[Co+2]
- survivor count [11]: 3 of 6

Compound: CN(C)CCCNC(CC#N)CCC#N (stereo not drawn)
- survivor count [12]: 0 of 6

Compound: COC(=O)/C(O)=C/C(N)=O.COC(=O)/C(O)=C/C(N)=O.[Cu]
- survivor count (T/C endpoint: mean survival time, dose: 75.0 mg/kg/injection, schedule: Q01DX001 (ip), vehicle: carboxymethylcellulose (CMC)): 0 of 6
- survivor count (T/C endpoint: mean survival time, dose: 150.0 mg/kg/injection, schedule: Q01DX001 (ip), vehicle: carboxymethylcellulose (CMC)): 0 of 6
- survivor count (T/C endpoint: mean survival time, dose: 300.0 mg/kg/injection, schedule: Q01DX001 (ip), vehicle: carboxymethylcellulose (CMC)): 0 of 6

Compound: C=CCCCCCCCCC(=O)NCCCN1CCOCC1
- survivor count [13]: 0 of 6

Compound: Cc1cccc(CCl)n1
- survivor count (T/C endpoint: mean survival time, dose: 400.0 mg/kg/injection, schedule: Q01DX009 (ip), vehicle: saline): 1 of 6

Compound: O=[N+]([O-])c1cc(S(=O)(=O)F)ccc1Cl
- survivor count [11]: 3 of 3
- survivor count [9]: 0 of 3

Compound: NC(=S)Nc1ccccc1[N+](=O)[O-]
- survivor count [13]: 0 of 6
- survivor count [8]: 2 of 6

Compound: C[CH2][Sn]1([CH2]C)[O]CC2OC(n3cc(C)c(=O)[nH]c3=O)CC2[O]1 (stereo not drawn)
- survivor count (T/C endpoint: mean survival time, dose: 12.5 mg/kg/injection, schedule: Q01DX005 (ip), vehicle: other): 1 of 6 and 3 of 6
- survivor count (T/C endpoint: mean survival time, dose: 25.0 mg/kg/injection, schedule: Q01DX005 (ip), vehicle: other): 0 of 6
- survivor count (T/C endpoint: mean survival time, dose: 50.0 mg/kg/injection, schedule: Q01DX005 (ip), vehicle: other): 0 of 6
- survivor count (T/C endpoint: mean survival time, dose: 100.0 mg/kg/injection, schedule: Q01DX005 (ip), vehicle: other): 0 of 6
- survivor count (T/C endpoint: mean survival time, dose: 200.0 mg/kg/injection, schedule: Q01DX005 (ip), vehicle: other): 0 of 6

Compound: CCC1(O)CC2CN(CCc3c([nH]c4ccccc34)C(C(=O)OC)(c3cc4c(cc3OC)N(C)C3C(O)(C(=O)NCCSSCCNC(=O)C5(O)C(O)C6(CC)C=CCN7CCC8(c9cc(C%10(C(=O)OC)CC%11CN(CCc%12c%10[nH]c%10ccccc%12%10)CC(O)(CC)C%11)c(OC)cc9N(C)C58)C76)C(O)C5(CC)C=CCN6CCC43C65)C2)C1 (stereo not drawn)
- T/C (T/C endpoint: median survival time, dose: 0.38 mg/kg/injection, schedule: Q01DX009 (ip), vehicle: suspension in saline): 127 and 135 % of control
- T/C (T/C endpoint: median survival time, dose: 0.64 mg/kg/injection, schedule: Q01DX009 (ip), vehicle: suspension in saline): 139 [5 of 6 alive] and 149 % of control
- survivor count (T/C endpoint: median survival time, dose: 1.08 mg/kg/injection, schedule: Q01DX009 (ip), vehicle: suspension in saline): 2 of 6
- survivor count (T/C endpoint: median survival time, dose: 1.8 mg/kg/injection, schedule: Q01DX009 (ip), vehicle: suspension in saline): 2 of 6 and 5 of 6
- survivor count (T/C endpoint: median survival time, dose: 3.0 mg/kg/injection, schedule: Q01DX009 (ip), vehicle: suspension in saline): 1 of 6 and 1 of 4

Compound: O=C(C[n+]1cccc(C(=O)NCc2ccccc2)c1)Nc1ccccc1
- survivor count (T/C endpoint: mean survival time, dose: 200.0 mg/kg/injection, schedule: Q04DX003 (ip), vehicle: saline): 1 of 6
- survivor count [12]: 0 of 6

Compound: OCCN1CCCCCCC1
- survivor count [6]: 0 of 6

Compound: Cc1ccc(S(=O)(=O)C[n+]2ccc(C(=O)c3ccccc3)cc2)cc1
- survivor count [7]: 0 of 3
- survivor count [8]: 0 of 3

Compound: O=C(NO)c1cc(O)c(O)c(O)c1
- T/C (T/C endpoint: mean survival time, dose: 50.0 mg/kg/injection, schedule: Q01DX009 (ip), vehicle: distilled water + Tween-80): 127 % of control
- T/C (T/C endpoint: mean survival time, dose: 50.0 mg/kg/injection, schedule: Q01DX009 (ip), vehicle: water): 129 % of control [5 of 6 alive]
- T/C (T/C endpoint: mean survival time, dose: 100.0 mg/kg/injection, schedule: Q01DX009 (ip), vehicle: distilled water + Tween-80): 139 % of control
- T/C (T/C endpoint: median survival time, dose: 25.0 mg/kg/injection, schedule: Q01DX009 (ip), vehicle: distilled water + Tween-80): 128 % of control
- T/C (T/C endpoint: median survival time, dose: 50.0 mg/kg/injection, schedule: Q01DX009 (ip), vehicle: distilled water + Tween-80): 132 % of control
- T/C (T/C endpoint: median survival time, dose: 100.0 mg/kg/injection, schedule: Q01DX009 (ip), vehicle: distilled water + Tween-80): 140 [9 of 10 alive] and 146 % of control
- survivor count (T/C endpoint: median survival time, dose: 400.0 mg/kg/injection, schedule: Q01DX009 (ip), vehicle: distilled water + Tween-80): 7 of 10

Compound: C=C1CC(O)C2C(=C)C(=O)OC2C2C(C)C(=O)CC12 (stereo not drawn)
- survivor count (T/C endpoint: mean survival time, dose: 50.0 mg/kg/injection, schedule: Q01DX009 (ip), vehicle: Klucel (hydroxypropylcellulose) (HPC)): 6 of 6

Compound: CC(=O)Nc1ccc(N=NNc2ccccc2)cc1
- survivor count (T/C endpoint: mean survival time, dose: 50.0 mg/kg/injection, schedule: Q01DX001 (ip), vehicle: Klucel (hydroxypropylcellulose) (HPC)): 0 of 3
- survivor count (T/C endpoint: mean survival time, dose: 100.0 mg/kg/injection, schedule: Q01DX001 (ip), vehicle: Klucel (hydroxypropylcellulose) (HPC)): 0 of 3
- survivor count (T/C endpoint: mean survival time, dose: 200.0 mg/kg/injection, schedule: Q01DX001 (ip), vehicle: Klucel (hydroxypropylcellulose) (HPC)): 0 of 3

Compound: Nc1cc(C(Br)(Br)Br)nc2ccccc12
- survivor count [5]: 2 of 6
- survivor count [6]: 0 of 6

Compound: Clc1ccc(C#Cc2ccc(Cl)cc2)cc1
- survivor count [1]: 2 of 6

Compound: CN(C)[C@@H]1C(=O)C(C(=O)NCNC(Cc2ccc(N(CCCl)CCCl)cc2)C(=O)O)=C(O)[C@@]2(O)C(=O)C3=C(O)c4c(O)cccc4[C@@](C)(O)[C@H]3C[C@@H]12 (stereo partly drawn)
- survivor count (T/C endpoint: mean survival time, dose: 200.0 mg/kg/injection, schedule: Q01DX001 (ip), vehicle: other): 2 of 4
- survivor count [3]: 1 of 4

Compound: COc1cc([C@@H]2c3cc4c(cc3[C@H](OC(C)=O)[C@H]3COC(=O)[C@@H]23)OCO4)cc(OC)c1OC
- T/C (T/C endpoint: mean survival time, dose: 50.0 mg/kg/injection, schedule: Q01DX009 (ip), vehicle: saline sonified): 127 % of control
- survivor count (T/C endpoint: mean survival time, dose: 200.0 mg/kg/injection, schedule: Q01DX009 (ip), vehicle: saline sonified): 5 of 6
